Source: PubChem BioAssay AID588674 (Broad Institute, 2011)
Among all 360,000 compounds or so, about 1,800 (0.5%) were called active. This list was built around the results that the source calls inconclusive (neither active nor inactive); the mix of calls is not that of the screen.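 The calls were made as follows: active = mean inhibition of at least 75% with every replicate also reaching 75%; inconclusive = mean inhibition at least 75% but some replicate below; inactive = mean inhibition below 75%.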

Test: reduction of Shn3 3'UTR firefly luciferase signal, primary screen, Schnurri-3 inhibitor project, cell-based, Clone20 osteoblasts, set 2 (AID 588674);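 also: 0% = median of neutral control wells and 100% = pilot-screen positive control compound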
Settings: Clone20 osteoblast Shn3 3'UTR firefly luciferase, 24 h; at 12.5 µM; hits give high values

Row | Structure (SMILES) | inhibition
1 | CCCCCc1ccc(OCCC[n+]2ccccc2)c(CCCCC)c1 | inconclusive: 86.8%
2 | CCOC(=O)c1c(SCCN2CCCC2)n(-c2ccccc2)c(=S)n(-c2ccccc2)c1=O | inconclusive: 85.2%
3 | O=C(O)c1cccc(COc2ccccc2Cl)c1 | active: 88.7%
4 | Cc1cc(Nc2cccc([N+](=O)[O-])c2)n2c(nc3ccccc32)c1C#N | inconclusive: 85.4%
5 | COc1cccc(CNC(=O)c2cc3c(C)nc4ccccc4c3o2)c1 | inconclusive: 81%
6 | O=C(N/N=C/c1ccc(Sc2nc3ccccc3s2)c([N+](=O)[O-])c1)c1ccccn1 | inactive: -10.5%
7 | Cc1cc(Sc2nnc(N)s2)c2ccccc2n1 | inconclusive: 86%
8 | CCCNC(=O)C1(C)CCN(C(=O)c2ccc3sccc3c2)C1 (stereo not given) | inactive: 23.5%
9 | Cc1cc(/C=C2/SC(=S)N(c3cccc(C(F)(F)F)c3)C2=O)c(C)n1-c1cccnc1 | inconclusive: 86.1%
10 | CCCOc1ccccc1C1CC(=O)Nc2cc3c(cc21)OCO3 (stereo not given) | inconclusive: 86.4%
11 | C[C@H]1COC(=O)[C@H](NC(=O)OCC2c3ccccc3-c3ccccc32)C/C=C\C[C@H](CC(=O)N(CCO)Cc2ccccc2)C(=O)N1 | inconclusive: 85.3%
12 | CN(C)C(=O)c1ccc(SC(=S)NCc2ccccc2)cc1 | inconclusive: 83.4%
13 | O=[N+]([O-])c1ccc(N/N=C/c2sc(N3CCOCC3)nc2-c2ccccc2)c(S(=O)(=O)Nc2ccccc2Cl)c1 | active: 87.2%
14 | CC1=NN(c2nc(-c3ccc(C)cc3)cs2)C(=O)C1N=Nc1ccccc1O (stereo not given) | active: 92.2%
15 | CC(=O)CC(=O)Nc1nc(C)cc(C)n1 | inconclusive: 80.1%
16 | O=C(Cn1cnc2ccccc21)Nc1cccc(S(=O)(=O)N2CCCC2)c1 | inconclusive: 85%
17 | COc1ccc(OC)c(C(c2nnnn2Cc2ccccc2)N2CCN(C3CCCCC3)CC2)c1 (stereo not given) | active: 90.2%
18 | C/C(=N\NC(=O)c1cccc(Br)c1)c1ccccn1 | inconclusive: 85.1%
19 | Cc1ccc(N2CC(C(=O)NCc3n[nH]c(=O)c4ccccc34)CC2=O)cc1 (stereo not given) | inactive: -5.64%
20 | O=C(NCCc1ccccc1F)c1ccc2c(c1)OCCO2 | inconclusive: 85.5%
21 | CCOc1ccc(-c2nnc(N3CCCCC3)c3ccccc23)cc1 | inconclusive: 85.4%
22 | N=C1S/C(=C\c2ccc(-c3cccc(Cl)c3)o2)C(=O)N1c1nccs1 | inconclusive: 85.8%
23 | CCCCN1C2=NCCCN2c2cc(C)c(C)cc21 | inconclusive: 86.3%
24 | O=C(N/N=C/c1c(O)ccc2ccccc12)c1cccnc1 | inactive: 85%
25 | O=C(c1cccc(S(=O)(=O)N2CCN(c3ccccc3)CC2)c1)N1CCCC(C(F)(F)F)C1 (stereo not given) | inconclusive: 85%
26 | Cn1c(=O)[nH]c(N)c(Br)c1=O | inconclusive: 88%
27 | O=C(NCCc1ccc(Cl)cc1)c1cccc(S(=O)(=O)N2CCCC2)c1 | inconclusive: 87.6%
28 | COc1ccc(S(=O)(=O)N2c3cc(Cl)ccc3Oc3nc4ccccc4nc32)cc1 | inactive: 13.1%

Row | Structure (SMILES) | inhibition
29 | OC[C@@H]1CN(Cc2ccc(-c3ccccc3)cc2)C[C@H](n2cnc3c(Nc4ccccc4)ncnc32)O1 | inconclusive: 82.7%
30 | O=C(Nc1nc(-c2ccccc2)cs1)C1CCCCN1S(=O)(=O)c1ccccc1 (stereo not given) | inconclusive: 85.9%
31 | Cc1cc(Nc2cccc(Cl)c2)nc(NCc2ccccc2)n1 | active: 86.9%
32 | CCN(CC)S(=O)(=O)c1ccc(-c2ccc(S(=O)(=O)N(CC)CC)cc2)cc1 | inconclusive: 85.2%
33 | CC(CCc1ccccc1)NC(=O)COC(=O)c1ccc(S(C)(=O)=O)c([N+](=O)[O-])c1 (stereo not given) | active: 96.7%
34 | O=C(c1ccccc1)C(CN1CCCCC1)c1ccccc1 (stereo not given) | inconclusive: 90.3%
35 | Cc1ccccc1CS(=O)(=O)c1nnc([C@H](CC(C)C)NC(=O)OC(C)(C)C)o1 | inconclusive: 81.7%
36 | CCOC(=O)c1c(NC(=O)c2ccco2)sc2c1CCCC2 | inactive: 2.23%
37 | Fc1ccc(NCc2cccnc2)cc1 | inconclusive: 91.3%
38 | CCCCNc1c(-c2ccc(OC)c(Sc3ccc(OC)cc3)c2)nc2ccccn12 | inconclusive: 88%
39 | CCN(CC)S(=O)(=O)c1ccc(N(C)Cc2ccc(C(F)(F)F)cc2)nc1 | inconclusive: 86.2%
40 | CN1/C(=C\P(=O)(N(C)C)N(C)C)C(C)(C)c2ccccc21 | inconclusive: 81.2%
41 | CCSc1nnc(-c2cccc(S(=O)(=O)N(CC)CC)c2)n1Cc1ccccc1 | inconclusive: 80.5%
42 | COc1ccc(C2/C=C\CN(S(=O)(=O)c3ccc(C)cc3)[C@H](Cc3ccccc3)C(=O)N2Cc2ccc(F)cc2)cc1 (stereo not given in full) | inconclusive: 85.3%
43 | C=CCOc1ccc(C2=NOC(C(=O)Nc3ccc4c(c3)OCCO4)C2)cc1OC (stereo not given) | inactive: 19%
44 | Nc1ncnc2c(C3OC(CO)C(O)C3O)c[nH]c12 (stereo not given) | active: 93%
45 | Cc1ccc(S(=O)(=O)N2CCc3ccccc3CC2)cc1 | inconclusive: 85%
46 | CC1=C(C(=O)Nc2ccccc2C)C(c2ccc(C)o2)C2=C(CCCC2=O)N1 (stereo not given) | inactive: -4.5%
47 | O=C(c1cc2sccc2n1Cc1ccccc1)N1CCN(c2nc3ccccc3s2)CC1 | inconclusive: 88%
48 | O=C(Nc1ccc([N+](=O)[O-])cc1)Nc1nc(-c2ccc(Cl)s2)cs1 | inconclusive: 87.3%
49 | O=P(CCCCCCCCCP(=O)(c1ccccc1)c1ccccc1)(c1ccccc1)c1ccccc1 | active: 88.4%
50 | COc1ccc(C)cc1Nc1n[n+](-c2ccccc2)c(-c2c(OC)ccc3ccccc23)s1 | inactive: 74%
51 | CN(C(=O)c1cccc(NC(=O)Cc2ccc(NC(=O)C3CCN(C(=O)C4CCCC4)CC3)cc2)c1)C1CC1 | inactive: 0.538%
52 | CCOc1cccc(/C=N/Nc2ccc(S(=O)(=O)N(CC)CC)cn2)c1O | inconclusive: 87.2%
53 | NC(=O)c1ccc(-c2noc(-c3cccc(Cl)c3)n2)cc1 | inactive: -63.4%
54 | O=C(CC(Nc1ccccc1Cl)C(=O)O)c1ccccc1 (stereo not given) | inactive: -76%
55 | COc1ccc2nc(C)cc(SCC(=O)N/N=C/c3ccc(O)cc3O)c2c1 | active: 86.9%

Copied from the list:
`Cc1cc(Nc2cccc(Cl)c2)nc(NCc2ccccc2)n1` | inhibition: active: 86.9%
`CCCOc1ccccc1C1CC(=O)Nc2cc3c(cc21)OCO3` (stereo not given) | inhibition: inconclusive: 86.4%
